For at least one entry, the source does not settle the construct or the ends of the probe. Where cells or extracts were used, other partners may take part.
Target: Etag-STAT3 Y640F (UniProt P40763)
Assay: EMSA, supershift
Conditions: 10 mM Hepes pH 7.8, 1 mM EDTA, 5 mM MgCl2, 10% glycerol, 5 mM DTT, 2 mM Pefabloc SC, 1 mg/ml BSA, 0.1 mg/ml poly(dI-dC), 5 ug nuclear extract, ~10 fmol probe, 10 min, protein in a lysate after overexpression, label: alpha-32P dATP (Klenow fill-in)

By UniProt entry, the sequences of proteins in these tests, tags left out.
UniProt P40763, whole entry Y640F: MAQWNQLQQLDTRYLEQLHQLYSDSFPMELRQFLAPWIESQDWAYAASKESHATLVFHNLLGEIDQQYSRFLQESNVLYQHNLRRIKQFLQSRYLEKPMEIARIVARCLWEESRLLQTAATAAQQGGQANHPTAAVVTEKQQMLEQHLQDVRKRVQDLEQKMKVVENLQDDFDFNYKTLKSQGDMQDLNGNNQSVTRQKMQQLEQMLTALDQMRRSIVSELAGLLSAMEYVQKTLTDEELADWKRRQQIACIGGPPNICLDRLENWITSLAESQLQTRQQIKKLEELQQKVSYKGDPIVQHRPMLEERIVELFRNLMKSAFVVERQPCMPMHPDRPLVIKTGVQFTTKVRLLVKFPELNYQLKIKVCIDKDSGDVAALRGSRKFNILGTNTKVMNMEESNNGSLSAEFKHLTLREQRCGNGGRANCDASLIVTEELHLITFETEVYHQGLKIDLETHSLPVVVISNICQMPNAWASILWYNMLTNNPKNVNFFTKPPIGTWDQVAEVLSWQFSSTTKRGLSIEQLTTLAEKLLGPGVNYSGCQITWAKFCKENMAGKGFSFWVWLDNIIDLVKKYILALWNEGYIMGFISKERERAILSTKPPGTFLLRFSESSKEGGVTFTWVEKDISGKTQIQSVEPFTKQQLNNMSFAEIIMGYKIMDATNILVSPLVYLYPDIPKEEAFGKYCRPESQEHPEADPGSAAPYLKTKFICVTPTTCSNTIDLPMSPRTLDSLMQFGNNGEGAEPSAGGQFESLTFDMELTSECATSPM

Row | Sequence | binding result (IFNa2 5 ng/ml 15 min) | binding result (LIF 15 ng/ml 15 min)
1 | CGATTCCTGGAACTGCGCGG / CAGCATTTCCGCGCAGTTCCAGGAA [SOCS3 promoter probe] | binds | binds
2 | GATCCGGGAGGGATTTACGGGAAATGCTG (double strand) [cFOS promoter probe] | binds | binds

From PMC5698428
